Out of some 140,000 compounds screened, about 4,300 (3.1%) were called active. The shares of active, inactive and inconclusive entries below differ from those in the screen.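 How the source made its calls: active means readout at or below -70, meaning at least 70% loss of cells showing the perinucleolar compartment, a nuclear body marking cancer cells; inconclusive means readout between -30 and a set limit; inactive means the rest.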
experiment: High Content Assay for Compounds that inhibit the Assembly of the Perinucleolar Compartment; details: PC3M PTB-GFP, PNC prevalence imaging, 16 h; at 10 µM; stronger effect = lower value;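 further: plate controls were DMSO wells for no effect and camptothecin positive control wells for full effect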
Method in brief: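 Read-out is percentage of cells bearing a perinucleolar compartment, from automated 20x imaging of fixed, Hoechst-stained PC3M PTB-GFP cells. Cells were seeded 4 h, then exposed 16 h to compound (23 nl of library stock) in duplicate plates.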

Q: With `Nc1c(C(=O)OCC2CCCO2)c2nc3ccccc3nc2n1-c1ccc2c(c1)OCCO2` (stereo not given) as the compound, how does the activity change (PNC), negative = inhibition read?
A: inconclusive: -51.2%

Q: Which activity change (PNC), negative = inhibition does the source give for `Clc1cc(Cl)cc(C2=NCCC(c3ccccc3)O2)c1` (stereo not given) here?
A: inactive: 88.9%

Q: With `CCOC(=O)C1C(=O)CC(C)(O)C(C(=O)OCC)C1c1cccs1` (stereo not given) as the compound, how does the activity change (PNC), negative = inhibition read?
A: inconclusive: -44.3%

Q: Which activity change (PNC), negative = inhibition does the source give for `CC1OC(Nc2cccc3ccccc23)C(O)C(O)C1O` (stereo not given) here?
A: inactive: -12.1%

Q: With `CCNC(=O)c1cc2c(=O)n3cccc(C)c3nc2n(CCc2ccccc2)c1=N` as the compound, how does the activity change (PNC), negative = inhibition read?
A: inconclusive: -59.4%

Q: Which activity change (PNC), negative = inhibition does the source give for `O=C1c2ccccc2C(=O)c2c1cccc2N1CCCC1` here?
A: inactive: 1.27%

Q: With `Nc1nnc(Cc2ccc(Cl)c(Cl)c2)s1` as the compound, how does the activity change (PNC), negative = inhibition read?
A: inactive: -19.9%

Q: Which activity change (PNC), negative = inhibition does the source give for `Cc1ccc(-c2ccc(CCC(=O)O)n2-c2cccc(O)c2)cc1` here?
A: inactive: 8.73%

Q: With `CCOC(=O)C1CCN(C(=O)CC2C(=O)N(Cc3ccccc3)C(C)c3nc4ccccc4n32)CC1` (stereo not given) as the compound, how does the activity change (PNC), negative = inhibition read?
A: inconclusive: -46%

Q: Which activity change (PNC), negative = inhibition does the source give for `C=CCNC(=O)c1ccc(C(=O)c2ccccc2)cc1` here?
A: inconclusive: -50.5%

Q: Which activity change (PNC), negative = inhibition does the source give for `O=C(CSc1nnc(-c2cccnc2)n1-c1ccccc1)Nc1ccc2c(c1)OCO2` here?
A: inconclusive: -37.1%

Q: Which activity change (PNC), negative = inhibition does the source give for `COc1cccc(-c2csc(N3CCN(C(=O)C4CCCCC4)CC3)n2)c1` here?
A: inactive: 30%

Q: For `CC(=O)Nc1ccc(S(=O)(=O)N(C)c2ccc(O)cc2)cc1`, which activity change (PNC), negative = inhibition is on record?
A: inactive: -4.6%

Q: With `CCC(=O)OCCn1c(=O)c2cc3c(=O)n(CCOC(=O)CC)c(=O)c3cc2c1=O` as the compound, how does the activity change (PNC), negative = inhibition read?
A: inconclusive: -49.2%

Q: For `CCN=C1SC(C(=O)NCCc2ccccc2)CC(=O)N1CC` (stereo not given), which activity change (PNC), negative = inhibition is on record?
A: inconclusive: -55.9%

Q: With `CCOc1ccccc1Nc1nnc(SCC(=O)N2CCCC2)s1` as the compound, how does the activity change (PNC), negative = inhibition read?
A: inactive: 44.5%

Q: Which activity change (PNC), negative = inhibition does the source give for `CCc1nnc(NC(=O)CSc2nnc(COc3ccccc3C)o2)s1` here?
A: inconclusive: -30.1%

Q: Which activity change (PNC), negative = inhibition does the source give for `O=S(=O)(NCc1cn2ccccc2n1)c1cc(F)ccc1F` here?
A: active: -100%

Q: Which activity change (PNC), negative = inhibition does the source give for `COc1ccc(-n2c(C)cc(SC)c(C(C)=O)c2=S)cc1` here?
A: inconclusive: -69.1%

Q: Which activity change (PNC), negative = inhibition does the source give for `CCC(C)/C(C)=N/NC(=O)c1cn(-c2ccccc2)nc1-c1ccccc1` (stereo not given) here?
A: inactive: 26.7%

Q: For `O=C(CN1CCN(c2ccccn2)CC1)Nc1ccc(OCc2ccccc2)cc1`, which activity change (PNC), negative = inhibition is on record?
A: inactive: 62.5%

Q: For `CCC(=O)NC(/C=C/c1ccccc1)c1cc([N+](=O)[O-])c2cccnc2c1O` (stereo not given), which activity change (PNC), negative = inhibition is on record?
A: inconclusive: -62.8%

Q: With `CCn1c(-c2cc3c(C(F)(F)F)nn(C)c3s2)n[nH]c1=S` as the compound, how does the activity change (PNC), negative = inhibition read?
A: inconclusive: -38.5%

Q: For `OCC1OC(n2nc3ccccc3n2)C(O)C(O)C1O` (stereo not given), which activity change (PNC), negative = inhibition is on record?
A: inactive: 21.9%

Q: With `CC(C)OC(=O)c1c(NC(=O)c2cnn3c2NC(c2ccccc2)CC3C(F)F)sc2c1CCCC2` (stereo not given) as the compound, how does the activity change (PNC), negative = inhibition read?
A: inconclusive: -45.8%

Source: PubChem BioAssay AID2417 (National Center for Advancing Translational Sciences (NCATS), 2010)
